Patent US20110256127A1
No constants are given. Whether binding was seen depends on the method and setting. Some binding calls cover weakened binding; strength is not graded here.

The chains behind the UniProt entries cited, without tags or fusion partners. Where a name states a change or a piece, a line headed by the entry shows the natural chain unless it says otherwise. Residues count along the entry.
UniProt O75581: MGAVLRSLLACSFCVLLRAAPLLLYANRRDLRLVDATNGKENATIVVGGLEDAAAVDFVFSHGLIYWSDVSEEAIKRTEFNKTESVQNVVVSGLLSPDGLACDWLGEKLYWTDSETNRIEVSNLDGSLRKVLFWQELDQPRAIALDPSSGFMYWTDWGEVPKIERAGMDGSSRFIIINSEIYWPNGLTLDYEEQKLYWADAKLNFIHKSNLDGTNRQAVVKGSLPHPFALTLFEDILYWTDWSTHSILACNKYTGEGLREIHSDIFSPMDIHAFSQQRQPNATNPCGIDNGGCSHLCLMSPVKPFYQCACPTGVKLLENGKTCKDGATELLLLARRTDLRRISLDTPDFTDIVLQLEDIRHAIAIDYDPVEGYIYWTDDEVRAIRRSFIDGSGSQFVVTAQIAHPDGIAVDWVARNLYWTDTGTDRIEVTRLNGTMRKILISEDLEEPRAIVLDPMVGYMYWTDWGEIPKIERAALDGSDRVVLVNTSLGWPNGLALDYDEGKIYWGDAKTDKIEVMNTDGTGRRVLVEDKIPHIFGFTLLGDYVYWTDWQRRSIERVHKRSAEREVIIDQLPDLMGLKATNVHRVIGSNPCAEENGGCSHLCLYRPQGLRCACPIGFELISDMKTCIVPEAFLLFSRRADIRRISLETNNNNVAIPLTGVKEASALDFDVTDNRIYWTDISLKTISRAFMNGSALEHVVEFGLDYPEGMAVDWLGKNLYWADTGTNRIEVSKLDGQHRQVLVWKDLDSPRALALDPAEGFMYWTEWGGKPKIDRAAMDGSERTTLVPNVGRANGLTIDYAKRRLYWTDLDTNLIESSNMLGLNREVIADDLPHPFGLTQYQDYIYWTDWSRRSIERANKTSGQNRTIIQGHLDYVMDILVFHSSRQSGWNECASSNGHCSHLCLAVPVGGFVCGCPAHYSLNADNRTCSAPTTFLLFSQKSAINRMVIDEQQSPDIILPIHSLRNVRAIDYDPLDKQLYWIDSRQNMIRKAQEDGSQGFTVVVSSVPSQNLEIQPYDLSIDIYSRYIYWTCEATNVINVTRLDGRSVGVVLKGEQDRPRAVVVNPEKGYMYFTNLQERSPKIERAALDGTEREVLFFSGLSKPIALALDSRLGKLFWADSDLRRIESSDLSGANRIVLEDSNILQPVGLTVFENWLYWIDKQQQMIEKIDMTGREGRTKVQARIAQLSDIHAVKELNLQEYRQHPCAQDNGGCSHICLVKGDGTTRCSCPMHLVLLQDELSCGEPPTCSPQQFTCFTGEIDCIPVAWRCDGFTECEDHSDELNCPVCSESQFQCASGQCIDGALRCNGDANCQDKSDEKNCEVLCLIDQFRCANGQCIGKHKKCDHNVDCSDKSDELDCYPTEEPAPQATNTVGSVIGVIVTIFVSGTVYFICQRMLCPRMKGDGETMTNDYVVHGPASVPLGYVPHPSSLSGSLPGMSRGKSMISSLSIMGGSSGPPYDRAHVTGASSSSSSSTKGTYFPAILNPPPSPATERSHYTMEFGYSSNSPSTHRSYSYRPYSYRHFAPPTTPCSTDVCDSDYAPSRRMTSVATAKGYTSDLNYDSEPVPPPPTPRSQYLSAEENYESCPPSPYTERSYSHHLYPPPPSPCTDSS
UniProt P56704, residues 19-352: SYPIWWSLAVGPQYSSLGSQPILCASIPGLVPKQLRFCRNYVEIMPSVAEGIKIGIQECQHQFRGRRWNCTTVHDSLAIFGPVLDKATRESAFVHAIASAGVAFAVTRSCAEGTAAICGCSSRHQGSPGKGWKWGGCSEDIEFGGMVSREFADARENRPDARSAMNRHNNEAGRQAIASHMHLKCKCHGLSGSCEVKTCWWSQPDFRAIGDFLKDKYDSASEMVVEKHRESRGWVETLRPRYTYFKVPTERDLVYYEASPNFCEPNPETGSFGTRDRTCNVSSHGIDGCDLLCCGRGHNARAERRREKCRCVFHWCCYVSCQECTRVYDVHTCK

Biological target: LRP6.E1-E4 protein (Homo sapiens (Human)) (UniProt O75581)
Test: biolayer interferometry, biotinylated LRP6 E1-E4 on streptavidin biosensors; Wnt3a at 200 nM; association then dissociation phase

binding: binds
Substance: Wnt3a (from UniProt P56704 19-352) (ligand)
